Sequences of proteins named here, by UniProt entry; tags and fusion partners are left off.
UniProt P40763: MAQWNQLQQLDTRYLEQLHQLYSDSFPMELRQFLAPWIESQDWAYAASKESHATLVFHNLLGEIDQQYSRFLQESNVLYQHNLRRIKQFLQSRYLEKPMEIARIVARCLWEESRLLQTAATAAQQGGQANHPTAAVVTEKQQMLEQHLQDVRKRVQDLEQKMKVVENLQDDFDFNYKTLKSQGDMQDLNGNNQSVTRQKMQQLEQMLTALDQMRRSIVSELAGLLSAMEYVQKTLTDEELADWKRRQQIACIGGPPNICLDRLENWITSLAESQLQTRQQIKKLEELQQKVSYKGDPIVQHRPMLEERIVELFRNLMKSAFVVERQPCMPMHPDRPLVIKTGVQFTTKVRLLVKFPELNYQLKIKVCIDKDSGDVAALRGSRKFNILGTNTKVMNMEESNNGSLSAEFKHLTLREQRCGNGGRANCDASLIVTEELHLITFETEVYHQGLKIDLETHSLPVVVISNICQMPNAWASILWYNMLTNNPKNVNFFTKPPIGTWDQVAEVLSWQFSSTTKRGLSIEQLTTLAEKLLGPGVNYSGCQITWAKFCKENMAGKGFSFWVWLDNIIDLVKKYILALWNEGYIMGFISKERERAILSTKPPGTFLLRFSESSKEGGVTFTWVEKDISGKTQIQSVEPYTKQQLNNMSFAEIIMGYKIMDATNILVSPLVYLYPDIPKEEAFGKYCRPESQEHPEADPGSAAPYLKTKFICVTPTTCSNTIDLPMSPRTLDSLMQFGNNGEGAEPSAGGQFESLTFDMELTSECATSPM

In PMC9981285:

Target: T1, 3 × FLAG-GINS2 (UniProt Q9Y248)
T1 sequence: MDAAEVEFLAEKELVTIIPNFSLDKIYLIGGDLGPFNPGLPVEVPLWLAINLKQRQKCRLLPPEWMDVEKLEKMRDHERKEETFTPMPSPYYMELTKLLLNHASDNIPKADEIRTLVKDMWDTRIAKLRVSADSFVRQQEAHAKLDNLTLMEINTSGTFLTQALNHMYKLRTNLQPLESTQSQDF
Assay: affinity purification with mass spectrometry; lysates (RIPA) of stable cells with empty vector (NC) or 3 × FLAG-GINS2 (OE); Co-IP with FLAG beads, SDS-PAGE, Coomassie staining, gel bands digested with trypsin, LC-MS

STAT3 (from UniProt P40763 1-770)
binding: binds

Results are given in words; binding and its absence hold for the method and conditions named. In cells and extracts the contact can be indirect. A yes stands for co-enrichment or nearness to the bait. Other partners may have been found. Tags and fused reporters may be left off the sequences shown.
